The record followed here is the supplement of paper PMC4604168 (melanoma cell lines).

The other results are listed elsewhere or left out. Single values are uncertain, as repeats are few or missing.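 The apoptosis fraction was the count of cleaved-PARP antibody-stained nuclei relative to all DNA-stained nuclei, imaged in 1,536-well plates. Screening doses were set so most cells survived, and baseline and induced cleaved-PARP levels vary greatly across cell lines.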

This assay relates to RPMI7951. Briefly: cleaved PARP positive nuclei fraction relative to DMSO control; melanoma cells; higher = more apoptosis. The following applies: library dose: low library concentration; 72 h.
For `N#CC[C@H](C1CCCC1)n1cc(-c2ncnc3[nH]ccc23)cn1` [ruxolitinib] + C[C@]1(O)C[C@@H](c2nc(-c3ccc4ccc(-c5ccccc5)nc4c3)c3c(N)nccn32)C1 [OSI906] (first compound 1 µM, partner dose 0.4 µM), the “cleaved PARP positive nuclei fraction” value was 35.8%.
The same measure for `Cc1cc(Nc2cc(N3CCN(C)CC3)nc(Sc3ccc(NC(=O)C4CC4)cc3)n2)n[nH]1` [Tozasertib] + CNC(=O)c1cc(Oc2ccc(NC(=O)Nc3ccc(Cl)c(C(F)(F)F)c3)cc2)ccn1 [sorafenib] (first compound 0.006 µM, partner dose 0.4 µM): 55.1%.
For `Cc1ccc(Nc2nccc(N(C)c3ccc4c(C)n(C)nc4c3)n2)cc1S(N)(=O)=O` [Pazopanib] + CN1CCN(c2ccc3nc(-c4c(N)c5c(F)cccc5[nH]c4=O)[nH]c3c2)CC1 [Dovitinib] (first compound 0.4 µM, partner dose 0.1 µM) the value was 57.8%.
For `Cc1cn(-c2cc(NC(=O)c3ccc(C)c(Nc4nccc(-c5cccnc5)n4)c3)cc(C(F)(F)F)c2)cn1` [nilotinib] + Cn1c(=O)n(-c2ccc(C(C)(C)C#N)cc2)c2c3cc(-c4cnc5ccccc5c4)ccc3ncc21 [NVP-BEZ235] (first compound 0.2 µM, partner dose 0.004 µM) the value was 52.2%.
Turning to `O=c1[nH]nc(Sc2ncc([N+](=O)[O-])s2)n1-c1ccc2c(c1)OCCO2` + C=CCNC1=C2C[C@@H](C)C[C@H](OC)[C@H](O)[C@@H](C)/C=C(\C)[C@H](OC(N)=O)[C@@H](OC)/C=C\C=C(/C)C(=O)NC(=CC1=O)C2=O [Tanespimycin] (first compound 0.2 µM, partner dose 0.002 µM), the “cleaved PARP positive nuclei fraction” value came out at 65.7%.
The same measure for `CCCCCCCCCCCCCCCCCCOP(=O)([O-])OC1CC[N+](C)(C)CC1` [Perifosine] + C#Cc1cccc(Nc2ncnc3cc(OCCOC)c(OCCOC)cc23)c1 [erlotinib] (first compound 0.4 µM, partner dose 0.8 µM): 260%; for `COc1cc([C@@H]2c3cc4c(cc3[C@@H](O[C@@H]3O[C@@H]5CO[C@@H](C)O[C@H]5[C@H](O)[C@H]3O)[C@H]3COC(=O)[C@H]23)OCO4)cc(OC)c1O` [etoposide] + C[C@]1(O)C[C@@H](c2nc(-c3ccc4ccc(-c5ccccc5)nc4c3)c3c(N)nccn32)C1 [OSI906] (first compound 0.02 µM, partner dose 0.4 µM): 108%; for `CCCCCCCCCCCCCCCCCCOP(=O)([O-])OC1CC[N+](C)(C)CC1` [Perifosine] + C[C@@H](N)c1ccc(C(=O)Nc2ccnc3[nH]ccc23)cc1 [RKI983] (first compound 0.4 µM, partner dose 0.4 µM): 135%.
For `CCCCCCCCCCCCCCCCCCOP(=O)([O-])OC1CC[N+](C)(C)CC1` [Perifosine] + CCCS(=O)(=O)Nc1ccc(F)c(C(=O)c2c[nH]c3ncc(Cl)cc23)c1F [PLX4720] (first compound 0.4 µM, partner dose 0.08 µM) the value was 30.7%; for `O=C(/C=C/c1cccnc1)NCCCCC1CCN(C(=O)c2ccccc2)CC1` + Cc1cc(Nc2cc(N3CCN(C)CC3)nc(/C=C/c3ccccc3)n2)n[nH]1 [ENMD2076] (first compound 0.01 µM, partner dose 0.04 µM), 49.4%.
As to `O=C(/C=C/c1cccnc1)NCCCCC1CCN(C(=O)c2ccccc2)CC1` + Clc1ccc(Nc2nnc(Cc3ccncc3)c3ccccc23)cc1 [vatalanib] (first compound 0.01 µM, partner dose 2 µM), the “cleaved PARP positive nuclei fraction” value came to 40.4%.
For `Cc1cc(Nc2cc(N3CCN(C)CC3)nc(Sc3ccc(NC(=O)C4CC4)cc3)n2)n[nH]1` [Tozasertib] + CC1(C)CCC(c2ccc(Cl)cc2)=C(CN2CCN(c3ccc(C(=O)NS(=O)(=O)c4ccc(N[C@H](CCN5CCOCC5)CSc5ccccc5)c(S(=O)(=O)C(F)(F)F)c4)cc3)CC2)C1 [ABT263] (first compound 0.006 µM, partner dose 0.4 µM) the value was 136%.
For `CCCCCCCCCCCCCCCCCCOP(=O)([O-])OC1CC[N+](C)(C)CC1` [Perifosine] + NC(=O)c1ccc(N(C(N)=O)c2c(F)cccc2F)nc1-c1ccc(F)cc1F [VX702] (first compound 0.4 µM, partner dose 0.4 µM) the value was 84.1%.
